By UniProt entry, the sequences of proteins in these tests, tags left out.
UniProt P42945: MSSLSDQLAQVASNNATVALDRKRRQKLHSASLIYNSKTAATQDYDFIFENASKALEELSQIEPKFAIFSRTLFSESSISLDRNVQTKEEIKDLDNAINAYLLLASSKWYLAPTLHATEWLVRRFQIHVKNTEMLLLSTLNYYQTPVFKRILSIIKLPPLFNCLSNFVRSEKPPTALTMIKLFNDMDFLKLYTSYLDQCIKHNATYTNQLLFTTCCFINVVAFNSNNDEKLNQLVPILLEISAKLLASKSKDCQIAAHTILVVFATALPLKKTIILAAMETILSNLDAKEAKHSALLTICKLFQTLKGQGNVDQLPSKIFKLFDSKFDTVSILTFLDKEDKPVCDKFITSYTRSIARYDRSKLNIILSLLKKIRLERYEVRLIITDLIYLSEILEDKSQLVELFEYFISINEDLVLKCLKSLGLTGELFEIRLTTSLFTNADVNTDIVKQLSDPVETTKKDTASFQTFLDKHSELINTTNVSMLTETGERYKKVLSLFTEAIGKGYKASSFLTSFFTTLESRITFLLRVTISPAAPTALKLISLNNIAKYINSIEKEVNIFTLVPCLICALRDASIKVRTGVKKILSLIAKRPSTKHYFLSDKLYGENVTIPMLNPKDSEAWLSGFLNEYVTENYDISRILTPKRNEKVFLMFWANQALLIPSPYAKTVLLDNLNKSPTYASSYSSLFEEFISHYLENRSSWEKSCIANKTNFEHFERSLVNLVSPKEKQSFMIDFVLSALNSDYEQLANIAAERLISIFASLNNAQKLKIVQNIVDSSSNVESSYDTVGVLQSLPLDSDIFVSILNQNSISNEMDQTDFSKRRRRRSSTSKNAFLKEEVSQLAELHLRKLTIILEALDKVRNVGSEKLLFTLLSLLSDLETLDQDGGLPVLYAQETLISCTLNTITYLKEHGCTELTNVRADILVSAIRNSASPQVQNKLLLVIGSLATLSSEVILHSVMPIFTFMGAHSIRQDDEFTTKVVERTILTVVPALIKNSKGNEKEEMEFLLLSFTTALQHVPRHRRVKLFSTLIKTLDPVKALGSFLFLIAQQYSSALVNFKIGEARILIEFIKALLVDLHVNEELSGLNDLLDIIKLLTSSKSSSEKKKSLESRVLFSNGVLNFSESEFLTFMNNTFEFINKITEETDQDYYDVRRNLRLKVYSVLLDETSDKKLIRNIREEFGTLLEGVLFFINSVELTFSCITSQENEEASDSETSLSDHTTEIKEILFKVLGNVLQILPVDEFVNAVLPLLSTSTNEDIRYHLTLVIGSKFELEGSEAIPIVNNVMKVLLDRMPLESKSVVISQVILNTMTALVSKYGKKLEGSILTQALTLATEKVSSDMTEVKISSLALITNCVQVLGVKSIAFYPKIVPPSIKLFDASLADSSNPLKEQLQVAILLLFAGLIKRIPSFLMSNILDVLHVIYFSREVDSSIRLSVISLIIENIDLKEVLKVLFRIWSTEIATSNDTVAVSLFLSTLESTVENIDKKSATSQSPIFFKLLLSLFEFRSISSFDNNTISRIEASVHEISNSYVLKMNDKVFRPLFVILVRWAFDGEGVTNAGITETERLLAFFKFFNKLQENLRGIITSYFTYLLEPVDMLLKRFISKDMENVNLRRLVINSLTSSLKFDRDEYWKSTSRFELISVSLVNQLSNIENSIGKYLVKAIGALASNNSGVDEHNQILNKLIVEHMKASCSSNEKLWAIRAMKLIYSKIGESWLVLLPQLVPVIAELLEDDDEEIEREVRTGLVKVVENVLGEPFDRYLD
UniProt P33322: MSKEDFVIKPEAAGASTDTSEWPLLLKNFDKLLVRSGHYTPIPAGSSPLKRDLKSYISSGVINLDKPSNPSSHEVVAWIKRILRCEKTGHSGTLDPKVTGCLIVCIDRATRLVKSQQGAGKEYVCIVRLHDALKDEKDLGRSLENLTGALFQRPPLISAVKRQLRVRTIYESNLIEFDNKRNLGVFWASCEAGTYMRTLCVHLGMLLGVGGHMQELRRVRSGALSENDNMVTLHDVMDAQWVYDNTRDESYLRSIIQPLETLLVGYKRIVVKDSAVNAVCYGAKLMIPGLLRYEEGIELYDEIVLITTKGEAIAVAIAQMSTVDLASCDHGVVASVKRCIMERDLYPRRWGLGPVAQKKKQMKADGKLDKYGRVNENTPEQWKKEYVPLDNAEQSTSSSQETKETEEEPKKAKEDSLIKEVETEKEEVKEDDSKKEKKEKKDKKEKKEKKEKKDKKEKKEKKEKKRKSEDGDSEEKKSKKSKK
UniProt Q6Q547: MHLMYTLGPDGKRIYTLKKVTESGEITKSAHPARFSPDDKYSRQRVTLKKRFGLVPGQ
UniProt P32495: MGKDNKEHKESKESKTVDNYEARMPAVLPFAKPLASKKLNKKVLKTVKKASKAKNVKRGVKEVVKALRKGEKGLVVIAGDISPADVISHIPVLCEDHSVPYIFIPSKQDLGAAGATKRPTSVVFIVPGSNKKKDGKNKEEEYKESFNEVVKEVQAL
UniProt P28007: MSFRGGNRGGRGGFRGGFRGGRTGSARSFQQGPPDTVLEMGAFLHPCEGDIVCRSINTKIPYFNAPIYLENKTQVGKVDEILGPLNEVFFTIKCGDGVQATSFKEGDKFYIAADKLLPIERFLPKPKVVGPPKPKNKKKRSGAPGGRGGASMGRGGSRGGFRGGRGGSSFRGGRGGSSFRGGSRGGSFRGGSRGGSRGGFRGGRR

According to PMC12095548:

Experiments:
Experiment in all cases: affinity purification with mass spectrometry; tandem affinity purification of an FTpA-tagged bait from yeast lysate (IgG Sepharose, TEV elution, FLAG agarose, FLAG peptide elution; 60 mM Tris-HCl pH 8.0, 50 mM NaCl, 40 mM KCl, 2 mM MgCl2); cells: wild type, krr1∆C1, or galactose-induced KRR1 or krr1∆C3; SDS-PAGE and semiquantitative MS
[1] = biological target: Utp10-FTpA (Saccharomyces cerevisiae (yeast)) (UniProt P42945)
[2] = biological target: T1, Noc4-FTpA (Saccharomyces cerevisiae (yeast)) (UniProt Q06512)
T1 sequence: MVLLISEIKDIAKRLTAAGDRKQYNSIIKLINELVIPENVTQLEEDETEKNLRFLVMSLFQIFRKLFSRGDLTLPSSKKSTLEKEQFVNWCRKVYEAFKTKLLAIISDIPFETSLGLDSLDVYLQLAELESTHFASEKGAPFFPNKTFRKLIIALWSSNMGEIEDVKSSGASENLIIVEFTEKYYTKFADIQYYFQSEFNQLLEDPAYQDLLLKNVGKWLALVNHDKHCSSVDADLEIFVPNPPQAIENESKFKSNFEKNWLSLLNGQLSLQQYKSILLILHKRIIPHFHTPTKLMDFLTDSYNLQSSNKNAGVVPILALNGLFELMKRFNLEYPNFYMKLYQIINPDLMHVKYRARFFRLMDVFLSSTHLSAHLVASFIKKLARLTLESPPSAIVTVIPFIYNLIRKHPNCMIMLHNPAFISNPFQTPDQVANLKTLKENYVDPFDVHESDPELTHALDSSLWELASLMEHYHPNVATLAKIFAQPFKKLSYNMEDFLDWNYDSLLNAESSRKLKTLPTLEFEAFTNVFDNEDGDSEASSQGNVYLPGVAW

[3] = biological target: Utp10-FTpA (Saccharomyces cerevisiae (yeast)) (UniProt P42945); remark: listed apart in the source
[4] = biological target: T1, Noc4-FTpA (Saccharomyces cerevisiae (yeast)); remark: listed apart in the source
[5] = biological target: T2, Kri1-FTpA (Saccharomyces cerevisiae (yeast)) (UniProt P42846)
T2 sequence: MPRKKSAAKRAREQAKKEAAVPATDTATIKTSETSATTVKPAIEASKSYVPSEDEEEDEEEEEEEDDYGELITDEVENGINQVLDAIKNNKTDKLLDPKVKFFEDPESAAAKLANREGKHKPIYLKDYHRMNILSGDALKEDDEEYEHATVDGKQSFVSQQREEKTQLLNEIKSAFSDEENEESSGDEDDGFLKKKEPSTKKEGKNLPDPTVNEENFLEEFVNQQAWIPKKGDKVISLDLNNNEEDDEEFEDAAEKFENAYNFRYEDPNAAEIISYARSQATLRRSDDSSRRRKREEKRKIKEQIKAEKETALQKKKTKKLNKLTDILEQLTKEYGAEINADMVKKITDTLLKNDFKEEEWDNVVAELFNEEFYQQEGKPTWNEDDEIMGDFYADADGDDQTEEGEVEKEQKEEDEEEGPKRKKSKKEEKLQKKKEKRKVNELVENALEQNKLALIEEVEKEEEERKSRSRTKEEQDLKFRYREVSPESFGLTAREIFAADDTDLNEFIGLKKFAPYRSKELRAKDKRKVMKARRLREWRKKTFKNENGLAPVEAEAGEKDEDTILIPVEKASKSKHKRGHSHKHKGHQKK

[6] = biological target: T3, Utp23-FTpA (Saccharomyces cerevisiae (yeast)) (UniProt Q12339)
T3 sequence: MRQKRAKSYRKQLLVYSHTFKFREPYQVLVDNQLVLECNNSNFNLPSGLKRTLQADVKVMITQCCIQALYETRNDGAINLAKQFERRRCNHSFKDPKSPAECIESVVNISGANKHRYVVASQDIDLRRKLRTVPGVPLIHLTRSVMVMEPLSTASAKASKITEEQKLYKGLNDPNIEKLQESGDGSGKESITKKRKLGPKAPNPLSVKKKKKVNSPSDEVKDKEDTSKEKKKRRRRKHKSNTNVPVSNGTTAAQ

binding [1]: binds | binding [2]: binds
Molecule: Cbf5 (from UniProt P33322 1-483) (enzyme)

binding [1]: binds | binding [2]: binds
Molecule: Nop10 (from UniProt Q6Q547 1-58)

binding [1]: binds | binding [2]: binds
Molecule: Nhp2 (from UniProt P32495 1-156)

binding [1]: binds | binding [2]: binds
Molecule: Gar1 (from UniProt P28007 1-205)

binding [3]: binds | binding [4]: binds
B1: Kri1 (protein, UniProt P42846 1-591)
chain: T2 sequence

binding [5]: binds weakly | binding [6]: binds weakly | binding [3]: binds | binding [4]: binds
B2: Rrp7 (protein, UniProt P25368 1-297)
chain: MGIEDISAMKNGFIVVPFKLPDHKALPKSQEASLHFMFAKRHQSSNSNESDCLFLVNLPLLSNIEHMKKFVGQLCGKYDTVSHVEELLYNDEFGLHEVDLSALTSDLMSSTDVNEKRYTPRNTALLKFVDAASINNCWNALKKYSNLHAKHPNELFEWTYTTPSFTTFVNFYKPLDIDYLKEDIHTHMAIFEQREAQAQEDVQSSIVDEDGFTLVVGKNTKSLNSIRKKILNKNPLSKHENKAKPISNIDKKAKKDFYRFQVRERKKQEINQLLSKFKEDQERIKVMKAKRKFNPYT

binding [5]: binds weakly | binding [6]: binds weakly | binding [3]: binds | binding [4]: binds
B3: Rok1 (enzyme, UniProt P45818 1-564)
chain: MDIFRVLTRGASVKKESGPKAKAADYSVINGNDENHKEDNNESQIVKELDFFRNKRIISKVEDDREKTTENDSPNKEEKSGNDDGLIKPVITNTVEASALRKSYKGNVSGIDIPLPIGSFEDLISRFSFDKRLLNNLIENGFTEPTPIQCECIPVALNNRDVLACGPTGSGKTLAFLIPLVQQIIDDKQTAGLKGLIISPTKELANQIFIECFKLSYKIFLEKKRPLQVALLSKSLGAKLKNKVVSDKKYDIIISTPLRLIDVVKNEALDLSKVKHLIFDEADKLFDKTFVEQSDDILSACREPSLRKAMFSATIPSNVEEIAQSIMMDPVRVIIGHKEAANTNIEQKLIFCGNEEGKLIAIRQLVQEGEFKPPIIIFLESITRAKALYHELMYDRINVDVIHAERTALQRDRIIERFKTGELWCLICTDVLARGIDFKGVNLVINYDVPGSSQAYVHRIGRTGRGGRSGKAITFYTKQDSVAIKPIINVMKQSGCEVSEWMDKMAKMTRKEKESIKNGKAHKERKQITTVPKMDKAKRRRQQEMIAASKRRKNEELSKKHFSK

binding [3]: binds | binding [4]: binds
B4: Utp23 (protein, UniProt Q12339 1-254)
chain: T3 sequence

binding [5]: binds weakly | binding [6]: binds weakly | binding [3]: binds | binding [4]: binds
B5: Utp22 (protein, UniProt P53254 1-1237)
chain: MATSVKRKASETSDQNIVKVQKKHSTQDSTTDNGSKENDHSSQAINERTVPEQENDESDTSPESNEVATNTAATRHNGKVTATESYDIHIARETAELFKSNIFKLQIDELLEQVKLKQKHVLKVEKFLHKLYDILQEIPDWEEKSLAEVDSFFKNKIVSVPFVDPKPIPQNTNYKFNYKKPDISLIGSFALKAGIYQPNGSSIDTLLTMPKELFEKKDFLNFRCLHKRSVYLAYLTHHLLILLKKDKLDSFLQLEYSYFDNDPLLPILRISCSKPTGDSLSDYNFYKTRFSINLLIGFPYKVFEPKKLLPNRNCIRIAQESKEQSLPATPLYNFSVLSSSTHENYLKYLYKTKKQTESFVEATVLGRLWLQQRGFSSNMSHSGSLGGFGTFEFTILMAALLNGGGINSNKILLHGFSSYQLFKGVIKYLATMDLCHDGHLQFHSNPENSSSSPASKYIDEGFQTPTLFDKSTKVNILTKMTVSSYQILKEYAGETLRMLNNVVQDQFSNIFLTNISRFDNLKYDLCYDVQLPLGKYNNLETSLAATFGSMERVKFITLENFLAHKITNVARYALGDRIKYIQIEMVGQKSDFPITKRKVYSNTGGNHFNFDFVRVKLIVNPSECDKLVTKGPAHSETMSTEAAVFKNFWGIKSSLRRFKDGSITHCCVWSTSSSEPIISSIVNFALQKHVSKKAQISNETIKKFHNFLPLPNLPSSAKTSVLNLSSFFNLKKSFDDLYKIIFQMKLPLSVKSILPVGSAFRYTSLCQPVPFAYSDPDFFQDVILEFETSPKWPDEITSLEKAKTAFLLKIQEELSANSSTYRSFFSRDESIPYNLEIVTLNILTPEGYGFKFRVLTERDEILYLRAIANARNELKPELEATFLKFTAKYLASVRHTRTLENISHSYQFYSPVVRLFKRWLDTHLLLGHITDELAELIAIKPFVDPAPYFIPGSLENGFLKVLKFISQWNWKDDPLILDLVKPEDDIRDTFETSIGAGSELDSKTMKKLSERLTLAQYKGIQMNFTNLRNSDPNGTHLQFFVASKNDPSGILYSSGIPLPIATRLTALAKVAVNLLQTHGLNQQTINLLFTPGLKDYDFVVDLRTPIGLKSSCGILSATEFKNITNDQAPSNFPENLNDLSEKMDPTYQLVKYLNLKYKNSLILSSRKYIGVNGGEKGDKNVITGLIKPLFKGAHKFRVNLDCNVKPVDDENVILNKEAIFHEIAAFGNDMVINFETD

Read-outs that look alike come from different tables or passages of the source. Results are given in words; binding and its absence hold for the method and conditions named. Binding seen in cells or lysates may run through a third protein. A yes stands for co-enrichment or nearness to the bait. Other partners may have been found. For part of these data: Where a sequence is shown, tags or fusion partners need not be part of it. One block for each molecule: values may come before it.
